The target of this assay is Dual specificity protein kinase CLK1 (Homo sapiens) (UniProt P49759). Kind of assay: ligand-induced CLK1 melting temperature shift – biophysical, recombinant human kinase, DSF (AID 382). The settings on record: Recombinant CLK1, thermal shift (DSF), at 10 µM, protein 2 µM, buffer 10 mM HEPES, pH 7.5, NaCl 150 mM, with 50 µM L-Arg/L-Glu (1:1), stronger effect = higher value.

Amino acid sequences for entries named in this document (tags omitted). A change or cut given only in a name is not applied to a line headed by its entry.
UniProt P49759: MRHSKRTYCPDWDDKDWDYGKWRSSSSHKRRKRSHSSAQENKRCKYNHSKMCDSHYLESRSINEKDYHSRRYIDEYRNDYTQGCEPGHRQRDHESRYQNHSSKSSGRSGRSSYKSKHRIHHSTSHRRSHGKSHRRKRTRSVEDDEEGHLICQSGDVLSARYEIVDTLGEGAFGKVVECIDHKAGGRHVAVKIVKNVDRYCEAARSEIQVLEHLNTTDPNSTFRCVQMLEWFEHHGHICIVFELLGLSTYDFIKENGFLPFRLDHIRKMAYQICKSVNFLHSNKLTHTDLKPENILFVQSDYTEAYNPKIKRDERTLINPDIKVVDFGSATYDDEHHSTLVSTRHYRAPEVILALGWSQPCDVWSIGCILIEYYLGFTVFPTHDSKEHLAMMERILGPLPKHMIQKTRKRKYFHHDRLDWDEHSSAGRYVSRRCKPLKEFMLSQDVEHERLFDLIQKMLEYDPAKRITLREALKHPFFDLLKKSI

Shown are results outside the selection of hits, which stands elsewhere. The source made the active and inactive calls. How the calls were made is not given here.

Our source for the Tm shift values is PubChem BioAssay AID382 (SGCOxCompounds, 2006).

`CCC(CO)Nc1ccc2ncc(-c3cccc(Cl)c3)n2n1` (stereo unspecified): the Tm shift is active: 5.5 Celsius.
